Measured values taken from patent US8034606B2, “Acid tolerant Lactobacillus sakei probio-65 with the ability of growth suppression of pathogenic microorganisms and the anti-allergic effect” (priority 2005, dated 2011).
At least one read-out could not be matched to a standard name with certainty.

System: Lactobacillus sakei Probio-65
Assay: Antibiotic sensitivity test of the strain against fourteen antibiotics
Format: cell-based
Conditions: antibiotic amount (μg); resistant or susceptible by diameter (mm)

## CN(C)[C@@H]1C(O)=C(C(N)=O)C(=O)[C@@]2(O)C(O)=C3C(=O)c4c(O)cccc4[C@@](C)(O)[C@H]3C[C@@H]12 [Tetracycline]
  Results: R

## NC[C@H]1O[C@H](O[C@H]2[C@H](O)[C@@H](O[C@H]3O[C@H](CO)[C@@H](O)[C@H](N)[C@H]3O)[C@H](N)C[C@@H]2N)[C@H](O)[C@@H](O)[C@@H]1O [Kanamycin]
  Results: R
